Screening data, single-dose tests

Measurements from “University of Dundee, Small-Polar-MMV Screening Library” (2021), ChEMBL document CHEMBL3988442.

T. brucei: 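Whole-parasite assay of Trypanosoma brucei over 72 hours; the read-out is not stated. Tested at 30 µM. Higher reads as stronger inhibition (inferred: compounds with an IC50 in retests scored well above the rest). Values scatter widely below zero; nearly all retest evidence comes from the higher of the two concentrations used. About 64,000 compounds were tested under these conditions; 1.5% (about 940) showed 50% or more at least once.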
Toxoplasma: 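Assay of Toxoplasma gondii numbers, read through their beta-galactosidase reporter with a colour substrate. Tested at 10 µM. Higher reads as fewer parasites (inferred from which compounds were picked for retests). Of about 67,000 compounds tested this way, about 260 (0.38%) reached 50% or more in at least one test.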
Leishmania in macrophages: 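Cell assay of Leishmania donovani living inside macrophages; the read-out is not stated. Compounds at 30 µM. The record gives no direction; compounds that gave an IC50 in retests scored well above the rest, so higher reads as stronger inhibition. Of about 69,000 compounds tested this way, about 1,000 (1.5%) reached 50% or more in at least one test.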

Values are the deposited “Percent Effect”, in %.
The record does not define 0% and 100%; most values in the screen are far below 50% and negative numbers occur (in some assays of this library far below -100).
Compounds were drawn at random from those tested, without regard to their results.
Two or more numbers in one place are separate tests of the same structure; such repeats can differ widely.
A dash means the value is not listed here; it may have been measured.

SMILES	T. brucei	Toxoplasma	Leishmania in macrophages
CCN(C)c1ncnc2c1CCN(Cc1ccc(F)cc1)CC2.O=C(O)C(F)(F)F.O=C(O)C(F)(F)F	0	7.073	34.75
CN(Cc1ccc2c(c1)OCO2)C(=O)c1ccc(C2CCCO2)s1 (stereo not shown)	-13.59	-15.98	-16.35
CC(C(=O)O)N1CCc2onc(-c3ccc4c(c3)OCO4)c2C1 (stereo not shown)	-24.52	-3.495	7.184
Cc1cc2c(cc1Cl)C=CC1(CCN(C(=O)N3CCOCC3)CC1)O2	7.773	-31.98	7.448
Cc1nc(CCNC(=O)C2CC(=O)N(C(C)(C)C)C2)sc1C (stereo not shown)	20.23	11.48	14.14
CC(OCC1CC1)C(=O)Nc1nccn1Cc1ccccc1 (stereo not shown)	-6.831	-7.401	8.355
CN(C)C(=O)C1OC2(CCN(C(=O)c3ccoc3)CC2)c2ccccc21 (stereo not shown)	-0.7211	-6.711	6.985
CCC(NC1CCN(C(=O)c2ccccc2)CC1)c1cccs1 (stereo not shown)	3.581	17.72	0.5759
Cc1cc(-c2nccn2CCN2CCCCC2CO)oc1C (stereo not shown)	-16.8	-3.942	24.19
Cc1cnn(CC2CN(Cc3nc(C)c4ccccc4n3)CCO2)c1 (stereo not shown)	-	-0.4295	23.61
O=C(O)C(F)(F)F.O=C(O)C(F)(F)F.[H][C@]12CCCN(Cc3ccncc3)[C@@]1([H])CN(C(=O)c1ccco1)C2	-13.79	3.627	28.19
CCOc1nnc(CN2CCN(CCOC)C(CC)C2)s1 (stereo not shown)	-18.74	4.651	0.3844
Cc1noc(C)c1CN1CCn2cc(CN3CCOCC3)nc2C1	2.717	-1.239	42.52
Cc1nc(-c2cc(F)c3c(c2)CC(CN)O3)c[nH]1 (stereo not shown)	-44.72	5.471	25.07
Cn1cc(C(=O)NC2CCCC2)c(-c2cccnc2)n1	-12.57	-6.483	1.187
O=C(O)C(F)(F)F.[H][C@@]12CN(C(=O)c3ccccc3)CCO[C@]1([H])CN(c1ncccn1)C2	-59.8	0.05319	11.82
CC(C)N(CC(N)=O)C(=O)c1cnc(-c2ccc3c(c2)OCO3)s1	-	8.6	-6.197
O=C1CC(NS(=O)(=O)NCc2ccccc2)CN1c1ccccc1Cl (stereo not shown)	-10.5	6.065	1.839
c1cncc(-c2nc(C3CC3)ncc2-c2ccnc(N3CCCC3)n2)c1	1.649	-12.88	-0.7123 & -11
Cc1cc(C(=O)N2C[C@H](C(C)C)[C@@H](N(C)C)C2)cs1	-11.46	8.83	-16.57
CC(=O)c1ccccc1-c1cc(C(=O)O)cc(S(=O)(=O)NC(C)C)c1	-41.06	-4.696	5.515
CCc1nc(C(=O)N(CC)CC(=O)N(C)C)nn1-c1ccccc1Cl	2.004	3.965	17.86
COC(=O)c1cccc(C(=O)N2CCN(c3cc(Cl)ccc3C)CC2)n1	-0.2988	13.57	-40.12
Cc1nn(C)c(N2CCCN(C)CC2)c1CNC(=O)CC1CCCC1	-7.348	4.906	0.9273
CC(C)COC(C)C(=O)NCc1ccc(N(C)C)cc1 (stereo not shown)	-54.69	-6.675	13.82
COc1c(CC2CC(C(=O)O)=NO2)c(Br)c2c(c1OC)OCO2 (stereo not shown)	-1.212	-16.66	9.318
CCC(NC(=O)CN(C)Cc1ccc(C)o1)c1ccc(Br)cc1 (stereo not shown)	-38.45	3.373	13.18
CC(Cn1cccn1)NCc1nc(-c2ccco2)no1 (stereo not shown)	2.568	-6.539	25.76
O=C(O)C(F)(F)F.O=C(O)C(F)(F)F.[H][C@]12CC(=O)N(Cc3cccc(C)n3)[C@@]1([H])CCN2CC1CC1	9.244	7.603	32.68
COCC(C)Nc1ccc(-c2nc(Cc3ccc(F)cc3)no2)cn1 (stereo not shown)	-60.5	-18.76	-76.8
O=C(O)C(F)(F)F.O=C(O)C(F)(F)F.[H][C@]12CCN(Cc3cccs3)[C@@]1([H])CC[C@H](COCc1cccnc1)O2	9.92	0.2773	31.53
COc1cc2cc3c(nc2cc1OC)OCCN(CC1CC1)C3	-	7.687	-34.59
O=C(N[C@@H]1CNCCC[C@H]1O)c1ccc(OCCN2CCOCC2)cc1	-10.12	-5.019	11.44
CN(C(=O)c1ccncc1F)c1ccccc1S(C)(=O)=O	-5.566	3.964	14.15
Cc1cc(C(F)(F)F)nn1CCCNC(=O)C1CCN(S(C)(=O)=O)CC1	-1.273	11.27	5.028
O=C(COc1cccnc1)N1CCCC(n2cccn2)C1 (stereo not shown)	0.7233	1.853	-16.13
O=C1N(c2ccc(F)cc2)Cc2n[nH]c(=O)n21	-39.52	-4.831	2.514

4 of the entries, repeated:

| SMILES | T. brucei | Toxoplasma | Leishmania in macrophages |
|---|---|---|---|
| `O=C(O)C(F)(F)F.O=C(O)C(F)(F)F.[H][C@]12CCCN(Cc3ccncc3)[C@@]1([H])CN(C(=O)c1ccco1)C2` | -13.79 | 3.627 | 28.19 |
| `COc1c(CC2CC(C(=O)O)=NO2)c(Br)c2c(c1OC)OCO2` (stereo not shown) | -1.212 | -16.66 | 9.318 |
| `COCC(C)Nc1ccc(-c2nc(Cc3ccc(F)cc3)no2)cn1` (stereo not shown) | -60.5 | -18.76 | -76.8 |
| `CCOc1nnc(CN2CCN(CCOC)C(CC)C2)s1` (stereo not shown) | -18.74 | 4.651 | 0.3844 |